Measurements: article PMC8667040, “COUPY Coumarins as Novel Mitochondria-Targeted Photodynamic Therapy Anticancer Agents” (Journal of Medicinal Chemistry, 2021)

Tests used:
[1] = Singlet oxygen generation, cell-free DPBF assay; type: physicochemical; details: air-saturated DCM; 505 nm LED; DPBF scavenger; methylene blue reference
HeLa cells = test: Cellular uptake and intracellular localization by confocal microscopy; type: cell-based, human; details: 0.5 μM for 1, 1 μM for 2 and 15, 5 μM for 8; 30 min at 37 °C; λex 561 nm

SMILES	singlet oxygen quantum yield ΦΔ [1]	intracellular localization (HeLa cells)
CCN(CC)c1ccc2c(c1)O/C(=C(/C#N)c1cc[n+](C)cc1)C=C2C [Compound 1]	0.049	accumulated preferentially in mitochondria
CCN(CC)c1ccc2c(c1)O/C(=C(/C#N)c1cc[n+](CC(F)(F)F)cc1)C=C2C [Compound 2]	0.046	accumulated preferentially in mitochondria
CCN(CC)c1ccc2c(c1)O/C(=C(/C#N)c1ccncc1)C=C2C [Compound 8]	–	accumulated mainly in nucleoli as well as in vesicles
CCCCCC[n+]1ccc(/C(C#N)=C2/C=C(C)c3ccc(N(CC)CC)cc3O2)cc1 [Compound 15]	0.11	accumulated in mitochondria but not in nucleoli
